The values that follow come from paper PMC7334220, “Diamond Blackfan anemia is mediated by hyperactive Nemo-like kinase” (Nature Communications, 2020).

Results are given in words; binding and its absence hold for the method and conditions named. Binding seen in cells or lysates may run through a third protein. Some results given as binding are weak or reduced against the parent protein; the word gives no strength. Sequences can lack the tags named with a protein.

The assay addresses Nemo-like kinase (NLK), CFP- or YFP-tagged (UniProt Q9UBE8). The assay is described as follows: FRET or BRET; CFP-NLK and YFP-NLK transduced together in cord blood CD34+ progenitors (shLuc or shRPS19; with or without Nutlin-3) or bone marrow mononuclear cells; FRET read by flow cytometry (405 nm excitation, 529/24 filter). In general terms: In BRET a luciferase serves as donor, and the signal depends on an acceptor being close.

B1: Nemo-like kinase (NLK), CFP- or YFP-tagged (enzyme, UniProt Q9UBE8 1-527)
chain: MSLCGARANAKMMAAYNGGTSAAAAGHHHHHHHHLPHLPPPHLHHHHHPQHHLHPGSAAAVHPVQQHTSSAAAAAAAAAAAAAMLNPGQQQPYFPSPAPGQAPGPAAAAPAQVQAAAAATVKAHHHQHSHHPQQQLDIEPDRPIGYGAFGVVWSVTDPRDGKRVALKKMPNVFQNLVSCKRVFRELKMLCFFKHDNVLSALDILQPPHIDYFEEIYVVTELMQSDLHKIIVSPQPLSSDHVKVFLYQILRGLKYLHSAGILHRDIKPGNLLVNSNCVLKICDFGLARVEELDESRHMTQEVVTQYYRAPEILMGSRHYSNAIDIWSVGCIFAELLGRRILFQAQSPIQQLDLITDLLGTPSLEAMRTACEGAKAHILRGPHKQPSLPVLYTLSSQATHEAVHLLCRMLVFDPSKRISAKDALAHPYLDEGRLRYHTCMCKCCFSTSTGRVYTSDFEPVTNPKFDDTFEKNLSSVRQVKEIIHQFILEQQKGNRVPLCINPQSAAFKSFISSTVAQPSEMPPSPLVWE
Take B1: the binding entry was “binds”.
